The values that follow come from US8177962B2, “Metal corrosion inhibitor and hydrogen chloride formation inhibitor in a crude oil atmospheric distillation unit” (Kurita Water Industries, Ltd., priority 2002, dated 2012).

Counter-ions that a name gives are not always drawn.

The nature of data set [1]: Corrosion test of hydrochlorides on carbon steel test pieces. To be noted: hydrochloride of the named base, 50% by mass in pure water, 20 hours at 50° C., argon deaeration.
Data set [2] in a line: Corrosiveness test of hydrochlorides on mild steel test pieces. To be noted: 50% by mass aqueous solution, 18 hours at 90° C., nitrogen deaeration.
Data set [3] in a line: Quantity of ammonia or amines needed to reach a given boiler water pH in a test boiler. To be noted: 170° C., 0.8 Mpa, pure feed water.
A short description of data set [4]: Distillation test (JIS K2275): chloride ion in the distillate of gas oil with magnesium chloride/base test solution. To be noted: for Chloride ion concentration: magnesium chloride:base mole ratio 1:2, test solution 5% by mass in gas oil, distilled 0.5 hours at 100° C. to maximum 200° C., in distillate; for hydrogen chloride formation inhibiting effect or hydrogen chloride neutralizing effect: versus test solution 5 (no base) as blank.

Regarding `COCCCN` [3-methoxypropylamine], the “Corrosion speed (mdd)” value in data set [1] came to 480 mdd.

Regarding `N` [Ammonia], the “Corrosion speed (mdd)” value in data set [1] is 256 mdd.

For the compound `C[N+](C)(C)CCO.[Cl-]` [Choline hydrochloride (choline chloride), choline chloride], the “Corrosion speed (mdd)” value in data set [2] turned out to be 32 mdd.

For the compound `C[N+](C)(C)CCO.[OH-]` [Choline, (β-hydroxyethyl)trimethylammonium hydroxide], the “quantity added necessary to achieve boiler water pH, mass ratio with choline given as 1” value in data set [3] (boiler water pH (25° C.) 10.0), in data set [3] (boiler water pH (25° C.) 10.5) and in data set [3] (boiler water pH (25° C.) 11.0) was 1.0 throughout. Further, the “Corrosion speed (mdd)” value in data set [1] is given as 32 mdd. Also, the “Chloride ion concentration” value in data set [4] is recorded as 2.8 mg/L. The “hydrogen chloride formation inhibiting effect or hydrogen chloride neutralizing effect” value in data set [4] is recorded as “equivalent to or greater than that of sodium hydroxide”.

Turning to `NC1CCCCC1` [Cyclohexylamine], the “quantity added necessary to achieve boiler water pH, mass ratio with choline given as 1” value stood at 20.3 in data set [3] (boiler water pH (25° C.) 10.0), 28.0 in data set [3] (boiler water pH (25° C.) 10.5) and 44.8 in data set [3] (boiler water pH (25° C.) 11.0).

As for `CN(C)CCO.Cl` [Dimethylethanolamine hydrochloride], in data set [2], the “Corrosion speed (mdd)” value came to 288 mdd.

`NCCO` [Monoethanolamine hydrochloride]: the “Corrosion speed (mdd)” value in data set [2] came to 132 mdd.

Regarding `NCCO` [Monoethanolamine], in data set [1], the “Corrosion speed (mdd)” value was 132 mdd. For the same compound, in data set [4], the “Chloride ion concentration” value amounted to 140 mg/L and the “hydrogen chloride formation inhibiting effect or hydrogen chloride neutralizing effect” value was “neither monoethanolamine nor dimethylethanolamine exhibited any hydrogen chloride formation inhibiting effect or hydrogen chloride neutralizing effect”.

As to `C1COCCN1` [Morpholine], the “quantity added necessary to achieve boiler water pH, mass ratio with choline given as 1” value in data set [3] (boiler water pH (25° C.) 10.0) amounted to 53.0; in data set [3] (boiler water pH (25° C.) 10.5), 159.1; in data set [3] (boiler water pH (25° C.) 11.0), 424.2.

With `[Na+].[OH-]` [Sodium hydroxide], the “Chloride ion concentration” value in data set [4] turned out to be 5.4 mg/L.

On to Dimethylethanolamine, for which, in data set [4], the “Chloride ion concentration” value is listed as 140 mg/L and the “hydrogen chloride formation inhibiting effect or hydrogen chloride neutralizing effect” value is “neither monoethanolamine nor dimethylethanolamine exhibited any hydrogen chloride formation inhibiting effect or hydrogen chloride neutralizing effect”.
